{
  "source": "the supplement of paper PMC8728848",
  "assay_in_all_cases": "glycan array binding signal (z-score within array); higher = stronger binding",
  "conditions_in_all_cases": "glycan notation: IUPAC condensed, linker removed",
  "key": {"Gal(b1-4)Glc": {"target": "Gal(b1-4)Glc", "outline": "(§1)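 The binding signal is a Z-score computed within each array. Data were drawn from 3228 arrays in the Consortium for Functional Glycomics database, restricted to those with a known protein sequence. Scores were averaged over arrays of the same protein sequence at different concentrations or buffers, and over linkers, and negative values can be taken as non-binding.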"}, "Gal(b1-4)Glc6S": {"target": "Gal(b1-4)Glc6S", "outline": "as §1"}, "Gal(b1-4)GlcNAc": {"target": "Gal(b1-4)GlcNAc", "outline": "as §1"}, "[1]": {"target": "Gal(b1-4)GlcNAc(a1-6)Gal(b1-4)GlcNAc", "outline": "as §1"}, "Gal(b1-4)GlcNAc(b1-2)Man": {"target": "Gal(b1-4)GlcNAc(b1-2)Man", "outline": "as §1"}, "[2]": {"target": "Gal(b1-4)GlcNAc(b1-2)Man(a1-3)Man(b1-4)GlcNAc(b1-4)GlcNAc", "outline": "as §1"}, "[3]": {"target": "Gal(b1-4)GlcNAc(b1-2)Man(a1-3)[Gal(b1-4)GlcNAc(b1-2)Man(a1-6)]Man(b1-4)GlcNAc(b1-4)GlcNAc", "outline": "as §1"}, "[4]": {"target": "Gal(b1-4)GlcNAc(b1-2)Man(a1-3)[Gal(b1-4)GlcNAc(b1-2)Man(a1-6)]Man(b1-4)GlcNAc(b1-4)[Fuc(a1-6)]GlcNAc", "outline": "as §1"}, "[5]": {"target": "Gal(b1-4)GlcNAc(b1-2)Man(a1-3)[Gal(b1-4)GlcNAc(b1-2)Man(a1-6)][Gal(b1-4)GlcNAc(b1-4)]Man(b1-4)GlcNAc(b1-4)[Fuc(a1-6)]GlcNAc", "outline": "as §1"}, "[6]": {"target": "Gal(b1-4)GlcNAc(b1-2)Man(a1-3)[Gal(b1-4)GlcNAc(b1-2)Man(a1-6)][GlcNAc(b1-4)]Man(b1-4)GlcNAc(b1-4)[Fuc(a1-6)]GlcNAc", "outline": "as §1"}, "[7]": {"target": "Gal(b1-4)GlcNAc(b1-2)Man(a1-3)[GlcNAc(b1-2)Man(a1-6)]Man(b1-4)GlcNAc(b1-4)GlcNAc", "outline": "as §1"}, "[8]": {"target": "Gal(b1-4)GlcNAc(b1-2)Man(a1-3)[GlcNAc(b1-4)][Gal(b1-4)GlcNAc(b1-2)Man(a1-6)]Man(b1-4)GlcNAc(b1-4)GlcNAc", "outline": "as §1"}, "[9]": {"target": "Gal(b1-4)GlcNAc(b1-2)Man(a1-3)[Man(a1-6)]Man(b1-4)GlcNAc(b1-4)GlcNAc", "outline": "as §1"}, "[10]": {"target": "Gal(b1-4)GlcNAc(b1-2)Man(a1-6)Man(b1-4)GlcNAc(b1-4)GlcNAc", "outline": "as §1"}, "[11]": {"target": "Gal(b1-4)GlcNAc(b1-2)Man(a1-6)[GlcNAc(b1-2)Man(a1-3)]Man(b1-4)GlcNAc(b1-4)GlcNAc", "outline": "as §1"}, "[12]": {"target": "Gal(b1-4)GlcNAc(b1-2)Man(a1-6)[Man(a1-3)]Man(b1-4)GlcNAc(b1-4)GlcNAc", "outline": "as §1"}, "[13]": {"target": "Gal(b1-4)GlcNAc(b1-2)[Gal(b1-4)GlcNAc(b1-4)]Man(a1-3)[Gal(b1-4)GlcNAc(b1-2)Man(a1-6)]Man(b1-4)GlcNAc(b1-4)GlcNAc", "outline": "as §1"}, "[14]": {"target": "Gal(b1-4)GlcNAc(b1-2)[Gal(b1-4)GlcNAc(b1-4)]Man(a1-3)[Gal(b1-4)GlcNAc(b1-2)[Gal(b1-4)GlcNAc(b1-6)]Man(a1-6)]Man(b1-4)GlcNAc(b1-4)GlcNAc", "outline": "as §1"}, "[15]": {"target": "Gal(b1-4)GlcNAc(b1-2)[Gal(b1-4)GlcNAc(b1-4)]Man(a1-3)[GlcNAc(b1-4)][Gal(b1-4)GlcNAc(b1-2)Man(a1-6)]Man(b1-4)GlcNAc(b1-4)GlcNAc", "outline": "as §1"}, "[16]": {"target": "Gal(b1-4)GlcNAc(b1-2)[Gal(b1-4)GlcNAc(b1-4)]Man(a1-3)[GlcNAc(b1-4)][Gal(b1-4)GlcNAc(b1-2)[Gal(b1-4)GlcNAc(b1-6)]Man(a1-6)]Man(b1-4)GlcNAc(b1-4)GlcNAc", "outline": "as §1"}, "[17]": {"target": "Gal(b1-4)GlcNAc(b1-2)[Gal(b1-4)GlcNAc(b1-6)]Man(a1-6)[Gal(b1-4)GlcNAc(b1-2)Man(a1-3)]Man(b1-4)GlcNAc(b1-4)GlcNAc", "outline": "as §1"}, "[18]": {"target": "Gal(b1-4)GlcNAc(b1-2)[Gal(b1-4)GlcNAc(b1-6)]Man(a1-6)[Gal(b1-4)GlcNAc(b1-2)Man(a1-3)]Man(b1-4)GlcNAc(b1-4)[Fuc(a1-6)]GlcNAc", "outline": "as §1"}},
  "note": "The other results are listed elsewhere or left out.",
  "data": [
    {"binder": "Aap lectin (Staphylococcus epidermidis) (protein) VNLNYSSPFMSLLSMPADSSSNNTKNTIDIPPTTVKGRDNYDFYGRVDIESNPTDLNATNLTRYNYGQPPGTTTAGAVQFKNQVSFDKDFDFNIRVANNRQSNTTGADGWGFMFSKKDGDDFLKNGGILREKGTPSAAGFRIDTGYYNNDPLDKIQKQAGQGYRGYGTFVKNDSQGNTSKVGSGTPSTDFLNYADNTTNDLDGKFHGQKLNNVNLKYNASNQTFTATYAGKTWTATLSELGLSPTDSYNFLVTSS", "values": [
      {"measurement": "glycan array binding signal (z-score)", "setting": "Gal(b1-4)Glc", "result": -0.698},
      {"measurement": "glycan array binding signal (z-score)", "setting": "Gal(b1-4)Glc6S", "result": -0.825},
      {"measurement": "glycan array binding signal (z-score)", "setting": "Gal(b1-4)GlcNAc", "result": 0.132},
      {"measurement": "glycan array binding signal (z-score)", "setting": "[1]", "result": -0.288},
      {"measurement": "glycan array binding signal (z-score)", "setting": "Gal(b1-4)GlcNAc(b1-2)Man", "result": 3},
      {"measurement": "glycan array binding signal (z-score)", "setting": "[2]", "result": -0.84},
      {"measurement": "glycan array binding signal (z-score)", "setting": "[3]", "result": 0.19},
      {"measurement": "glycan array binding signal (z-score)", "setting": "[4]", "result": -0.322},
      {"measurement": "glycan array binding signal (z-score)", "setting": "[5]", "result": -0.996},
      {"measurement": "glycan array binding signal (z-score)", "setting": "[6]", "result": 0.361},
      {"measurement": "glycan array binding signal (z-score)", "setting": "[7]", "result": -0.746},
      {"measurement": "glycan array binding signal (z-score)", "setting": "[8]", "result": 1.94},
      {"measurement": "glycan array binding signal (z-score)", "setting": "[9]", "result": 0.805},
      {"measurement": "glycan array binding signal (z-score)", "setting": "[10]", "result": -0.684},
      {"measurement": "glycan array binding signal (z-score)", "setting": "[11]", "result": -0.656},
      {"measurement": "glycan array binding signal (z-score)", "setting": "[12]", "result": 2.29},
      {"measurement": "glycan array binding signal (z-score)", "setting": "[13]", "result": 0.283},
      {"measurement": "glycan array binding signal (z-score)", "setting": "[14]", "result": -0.447},
      {"measurement": "glycan array binding signal (z-score)", "setting": "[15]", "result": 0.627},
      {"measurement": "glycan array binding signal (z-score)", "setting": "[16]", "result": -0.249},
      {"measurement": "glycan array binding signal (z-score)", "setting": "[17]", "result": -0.293},
      {"measurement": "glycan array binding signal (z-score)", "setting": "[18]", "result": 1.62}
    ]}
  ]
}
